No constants are given. Whether binding was seen depends on the method and setting. A result given as binding can be weak or reduced; the word gives no strength.
Target: GST-STK24 fusion protein (UniProt Q9Y6E0)
Experiment: pull-down; purified His-STAT3 co-incubated with purified GST or GST-STK24 over night at 4 °C, then precipitated with Anti-GST Magnetic Beads; both purified

By UniProt entry, the sequences of proteins in these tests, tags left out. Where a name states a change or a piece, a line headed by the entry shows the natural chain unless it says otherwise.
UniProt Q9Y6E0: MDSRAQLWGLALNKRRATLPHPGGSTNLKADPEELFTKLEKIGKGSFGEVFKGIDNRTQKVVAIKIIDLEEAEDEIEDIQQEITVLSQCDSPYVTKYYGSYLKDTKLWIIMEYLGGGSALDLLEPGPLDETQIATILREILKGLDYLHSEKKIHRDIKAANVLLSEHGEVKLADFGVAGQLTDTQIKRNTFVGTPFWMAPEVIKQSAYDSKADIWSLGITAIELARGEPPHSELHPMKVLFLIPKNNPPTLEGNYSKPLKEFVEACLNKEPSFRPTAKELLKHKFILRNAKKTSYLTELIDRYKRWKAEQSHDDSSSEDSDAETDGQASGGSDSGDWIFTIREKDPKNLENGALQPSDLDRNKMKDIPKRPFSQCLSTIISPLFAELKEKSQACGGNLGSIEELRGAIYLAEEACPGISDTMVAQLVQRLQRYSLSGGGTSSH
UniProt P40763: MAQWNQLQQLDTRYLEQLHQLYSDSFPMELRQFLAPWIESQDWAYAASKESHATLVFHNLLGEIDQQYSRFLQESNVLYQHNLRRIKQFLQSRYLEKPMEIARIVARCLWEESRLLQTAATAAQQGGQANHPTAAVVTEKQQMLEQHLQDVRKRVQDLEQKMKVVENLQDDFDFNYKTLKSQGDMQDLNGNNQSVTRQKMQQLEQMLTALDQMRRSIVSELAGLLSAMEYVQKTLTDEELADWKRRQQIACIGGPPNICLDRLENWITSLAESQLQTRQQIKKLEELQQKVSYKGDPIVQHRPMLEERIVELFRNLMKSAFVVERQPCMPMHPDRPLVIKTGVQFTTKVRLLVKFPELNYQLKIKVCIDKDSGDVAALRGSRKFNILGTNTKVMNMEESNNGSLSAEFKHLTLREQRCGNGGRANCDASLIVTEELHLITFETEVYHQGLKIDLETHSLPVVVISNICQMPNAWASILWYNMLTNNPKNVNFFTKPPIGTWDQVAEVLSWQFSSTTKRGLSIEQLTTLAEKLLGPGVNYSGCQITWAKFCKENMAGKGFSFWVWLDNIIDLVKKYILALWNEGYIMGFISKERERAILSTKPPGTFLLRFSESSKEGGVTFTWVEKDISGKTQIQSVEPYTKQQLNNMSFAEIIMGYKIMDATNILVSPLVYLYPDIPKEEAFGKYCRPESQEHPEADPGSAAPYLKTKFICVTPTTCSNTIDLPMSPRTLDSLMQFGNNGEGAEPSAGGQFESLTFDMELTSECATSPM

Which binding does the source give for “His-STAT3 fusion protein (from UniProt P40763 1-770)” here?
The binding was “binds”.

Source: article PMC10011487
